Assay results from patent US20220305048A1, “USE OF HEPARIN TO PROMOTE TYPE 1 INTERFERON SIGNALING” (Dana-Farber Cancer Institute, Inc., priority 2019, published 2022).
For at least one compound, name, drawing or mass did not settle the structure.

What was measured:
[1] = system: RPPM mouse SCLC cells; H69M human SCLC cells; test: CXCL10 ELISA, STING agonist plus unfractionated or modified heparins; format: cell-based; conditions: RPPM: 1 μg/mL 2,3-cGAMP + 1 μg/mL heparin form; H69M: 10 μg/mL 2,3-cGAMP or 50 μM ADU + 10 μg/mL; 24 hours
[2] = system: B16F10 mouse melanoma cells; test: CXCL10 ELISA of conditioned media; format: cell-based; conditions: 1 ng/mL IFNb, Ruxolitinib 0.5 μM, 24 hours

SMILES | STING activity (CXCL10 release) with STING agonist plus heparin form [1] | CXCL10 release with JAK1 inhibitor [2]
CO[C@H]1O[C@H](COS(=O)(=O)O)[C@@H](O[C@@H]2O[C@@H](C(=O)O)[C@@H](O[C@H]3O[C@H](COS(=O)(=O)O)[C@@H](O[C@@H]4O[C@H](C(=O)O)[C@@H](O[C@H]5O[C@H](COS(=O)(=O)O)[C@@H](O)[C@H](O)[C@H]5NS(=O)(=O)O)[C@H](O)[C@H]4O)[C@H](OS(=O)(=O)O)[C@H]3NS(=O)(=O)O)[C@H](O)[C@H]2OS(=O)(=O)O)[C@H](O)[C@H]1NS(=O)(=O)O [fondaparinux] | did not | 
N#CC[C@H](C1CCCC1)n1cc(-c2ncnc3[nH]ccc23)cn1 [ruxolitinib] |  | suppressed
